The supplement of paper PMC7877785
± gives the uncertainty stated by the source. The uncertainty is large for many entries.

Assay: self-splicing fitness, log relative to wild type (ln ratio); higher = more splicing; Tetrahymena group I intron in knt gene, E. coli kanamycin selection, DiMSum; sequences stand for … in CUCUCU…GGAGGGAAAAGUUAUCAGGCAUGCACCUGGUAGCUAGUCUUUAAACCAAUAGAUUGCAUCGGUUUAAAAGGCAAGACCGUCAAAUUGCGGGAAAGGGGUCAACAGCCGUUCAGUACCAAGUCUCAGGGGAAACUUUGAGAUGGCCUUGCAAAGGGUAUGGUAAUAAGCUGACGGACAUGGUCCUAACCACGCAGCCAAGUCCUAAGUCAACAGAUCUUCUGUUGAUAUGGAUGCAGUUCACAGACUAAAUGUCGGUCGGGGAAGAUGUAUUCUUCUCAUAAGAUAUAGUCGGACCUCUCCUUAAUGGGAGCUAGCGGAUGAAGUGAUGCAACACUGGAGCCGCUGGGAACUAAUUUGUAUGCGAAAGUAUAUUGAUUAGUUUUGGAGUACUCGUGGUCG
Procedure, shortened: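 A randomised library covering all eight P1ex-region intron nucleotides was built with the intron in the knt kanamycin-resistance gene on pET-22b(+) and held in E. coli BL21(DE3). Cells were grown overnight at 37°C or 30°C on LB agar, with or without 25 μg/mL kanamycin, plus 100 μg/mL carbenicillin, 50 μM IPTG and 0.2% rhamnose, and pooled colonies were amplicon-sequenced on an Illumina HiSeq 2500. DiMSum fitness is the error-weighted combination of wild-type-normalised replicate fold changes, kanamycin versus none.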

Sequence	self-splicing fitness (ln) (30 °C)	self-splicing fitness (ln) (37 °C)
ACGUAGCAAUAUUACGUGGA	-3.46 ± 0.32	-2.2 ± 0.23
CUAGAGCAAUAUUACGAGCC	-2.52 ± 0.8	-3.4 ± 0.61
UAAUAGCAAUAUUACGAAGA	-3.15 ± 0.53	–
AAGGAGCAAUAUUACGCUAG	–	-2.89 ± 0.54
CUAGAGCAAUAUUACGUCGC	-4.29 ± 0.73	-2.89 ± 0.61
UUUUAGCAAUAUUACGAGGU	–	-3.26 ± 0.74
UAGAAGCAAUAUUACGCGGC	-0.828 ± 0.58	-1.88 ± 1.2
CUUAAGCAAUAUUACGCCUA	–	-3.23 ± 1
UUGCAGCAAUAUUACGCGCA	-1.84 ± 0.14	-0.231 ± 0.18
AGCAAGCAAUAUUACGCUCG	–	-2.01 ± 0.84
CGGUAGCAAUAUUACGAAUC	-3.09 ± 0.76	-0.226 ± 0.52
AAGGAGCAAUAUUACGUAAG	-2.71 ± 0.8	-3 ± 0.63
UCGGAGCAAUAUUACGUCUC	-3.75 ± 1	-1.13 ± 1.2
UCAUAGCAAUAUUACGUUCC	-4.8 ± 1	–
GUUGAGCAAUAUUACGACCA	–	-1.4 ± 0.81
CUCUAGCAAUAUUACGUGCC	-3.23 ± 0.28	-3.62 ± 0.39
CUGUAGCAAUAUUACGCGCA	-2.23 ± 0.39	-2.52 ± 0.41
UUGGAGCAAUAUUACGAAAA	-1.74 ± 0.84	–
CACGAGCAAUAUUACGGACC	–	-3.08 ± 1.1
CUUUAGCAAUAUUACGGUGC	-1.32 ± 1	-2.63 ± 1.1

Nothing new here: entries from further up.
Sequence	self-splicing fitness (ln) (30 °C)	self-splicing fitness (ln) (37 °C)
UAGAAGCAAUAUUACGCGGC	-0.828 ± 0.58	-1.88 ± 1.2
CUUAAGCAAUAUUACGCCUA	–	-3.23 ± 1
UUGCAGCAAUAUUACGCGCA	-1.84 ± 0.14	-0.231 ± 0.18

(listing goes on)

Sequence	self-splicing fitness (ln) (30 °C)	self-splicing fitness (ln) (37 °C)
UGUAAGCAAUAUUACGCUGC	-1.05 ± 0.67	-1.47 ± 0.55
AAUGAGCAAUAUUACGUCAG	-1.81 ± 0.45	-2.32 ± 0.42
UCCGAGCAAUAUUACGCCUC	-4.59 ± 0.72	–
CGCAAGCAAUAUUACGUAGG	-1.24 ± 0.057	-0.509 ± 0.075
UGCUAGCAAUAUUACGACGC	-1.52 ± 1.2	-3.4 ± 1
GGUCAGCAAUAUUACGCGGG	-3.26 ± 0.61	–
AACGAGCAAUAUUACGCAGG	–	-2.61 ± 0.53
CUAAAGCAAUAUUACGCCCC	–	-0.234 ± 1.4
GUCAAGCAAUAUUACGACUA	-3.5 ± 0.18	-2.03 ± 0.12
UAUUAGCAAUAUUACGCGAU	-4.76 ± 0.51	–
CUUUAGCAAUAUUACGACGA	-3.83 ± 0.72	–
AACGAGCAAUAUUACGUCCG	-4.9 ± 1	–
UCGGAGCAAUAUUACGAAGU	-4.16 ± 1	–
UGCUAGCAAUAUUACGAGCA	-3.92 ± 0.6	–
CUGUAGCAAUAUUACGCGCC	-3.01 ± 0.84	–
ACAUAGCAAUAUUACGAACA	0.105 ± 0.14	-1.05 ± 0.17
AGAUAGCAAUAUUACGUAAA	-2.53 ± 0.17	-1.74 ± 0.14
GGGGAGCAAUAUUACGUAGU	-4.52 ± 1	–
AUUGAGCAAUAUUACGUUAC	-4.23 ± 1	–
AAUGAGCAAUAUUACGAAAG	-4.04 ± 0.52	–

Sequence	self-splicing fitness (ln) (30 °C)	self-splicing fitness (ln) (37 °C)
ACUUAGCAAUAUUACGAGAC	–	-2.59 ± 0.54
GGGUAGCAAUAUUACGCAUA	0.317 ± 0.56	–
CUGUAGCAAUAUUACGUUCC	-4.43 ± 0.59	-2.72 ± 1.1
GACUAGCAAUAUUACGCUUC	-3.64 ± 0.73	-2.58 ± 0.63
GCAUAGCAAUAUUACGUCGA	-1.63 ± 0.15	-0.979 ± 0.15
CCGAAGCAAUAUUACGCAUC	–	-4.16 ± 0.72
GUCCAGCAAUAUUACGGGCU	–	-2.86 ± 0.53
GGUCAGCAAUAUUACGCCCG	-3.28 ± 0.6	-0.687 ± 0.65
CCAAAGCAAUAUUACGGAUG	-1.44 ± 0.069	-1.48 ± 0.1
CUCGAGCAAUAUUACGAGCU	–	-4.37 ± 0.59
CCAAAGCAAUAUUACGCCUA	-4.18 ± 0.33	-3.12 ± 0.35
UGGGAGCAAUAUUACGACCC	-2.25 ± 1.1	-1.87 ± 0.79
CAGAAGCAAUAUUACGCUCC	–	0.0166 ± 0.64
AGAGAGCAAUAUUACGCCCU	–	-3.53 ± 1
CCGUAGCAAUAUUACGCCCG	-0.871 ± 0.15	-0.0634 ± 0.21
CAUGAGCAAUAUUACGGAUC	-4.44 ± 0.59	-2.94 ± 0.33
AGAGAGCAAUAUUACGCUCG	-0.167 ± 1.2	-0.879 ± 0.57
AUGGAGCAAUAUUACGAUCA	-3.31 ± 0.54	–
